Assay results: patent publication US7101854B2 (Sankt-Peterburgskaya Obschestvennaya Organizatsiya …, priority 2000, dated 2006)
*: point of attachment. Cbz = O=C(OCc1ccccc1)*; OBn = c1ccc(CO*)cc1

Experiment: general procedure: solution-phase peptide synthesis; N,N'-dicyclohexylcarbodiimide / N-oxybenzotriazol

| Substance | step yield (coupling step) [%] | step yield (late stage modification step) [%] | final HPLC purity (purification step, 220 nm) [%] |
| --- | --- | --- | --- |
| Cbz-K(Cbz)E(OBn)D(OBn)A-OBn | 64 |  |  |
| H-Lys-Glu-Asp-Ala-OH |  | 95 | 98.75 |
